Reference: PubChem BioAssay AID1259425 (University of Nebraska Medical Center, 2018)

- Aim: 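Seek colon cancer weak points whose silencing resembles KSR1 loss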 (primary screen)
- Cell system: HCT116 human colon cancer cells
- Reagents: siRNA pool against human genes, 50 nM siRNA
- Detection: 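mRNA of six signature genes measured together by branched-DNA assay after 50 nM siRNA pool, blank removed, divided by geometric mean of two housekeeping genes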
- Scale: BNIP3L mRNA: higher = more BNIP3L transcript after knockdown; NDRG1 mRNA: higher = more NDRG1 transcript after knockdown
Here is an unselected part of about 14,000 reagents tested. Further read-outs or replicates are left out here. No sequences are given here. Not given: the time to read-out.

target	BNIP3L mRNA, set 1	NDRG1 mRNA, set 1
SLC7A7	0.0639	0.343
ZBTB4	0.13	0.307
EXOC6	0.137	0.213
CA7	0.1	0.345
TEKT3	0.206	0.243
GPA33	0.152	0.129
RPL39	0.14	0.634
SCN10A	0.113	0.133
RPS29	0.192	0.739
POLG	0.0493	0.148
MYG1	0.253	0.461
GDA	0.123	0.108
ITPR1	0.119	0.323
PODXL	0.141	0.103
MYOCD	0.0594	0.0963
RAB27B	0.0658	0.0836
SCP2	0.059	0.136
SH3RF1	0.0592	0.0727
RXFP2	0.106	0.166
NDRG3	0.0715	0.128
USP13	0.0461	0.0961
PLSCR2	0.132	0.519
MYOF	0.0969	0.0987
HGH1	0.154	0.306
ASMT	0.107	0.209
SSRP1	0.133	0.368
KLF14	0.164	0.446
CD68	0.103	0.199
ABCC5	0.0452	0.131
GRIN2B	0.0659	0.187
APEH	0.1	0.0754
NOTCH1	0.126	0.224
SERGEF	0.191	0.225
SGK1	0.161	0.164

Records above whose target name starts with S or s:
target	BNIP3L mRNA, set 1	NDRG1 mRNA, set 1
SLC7A7	0.0639	0.343
SCN10A	0.113	0.133
SCP2	0.059	0.136
SH3RF1	0.0592	0.0727
SSRP1	0.133	0.368
SERGEF	0.191	0.225
SGK1	0.161	0.164
